The target of the test is LONP1 mutant (named LONP1-MUT). Kind of test: co-IP; MAEC whole-cell lysate, mouse anti-Flag antibody (20 ug/ml) or normal mouse IgG, protein A/G magnetic beads, 4 °C, Western blot.

No constants are given. Whether binding was seen depends on the method and setting. In cells and extracts the contact can be indirect.

B1: SOD2 (in MAECs, co-IP) (enzyme, UniProt P04179 25-222)
chain: KHSLPDLPYDYGALEPHINAQIMQLHHSKHHAAYVNNLNVTEEKYQEALAKGDVTAQIALQPALKFNGGGHINHSIFWTNLSPNGGGEPKGELLEAIKRDFGSFDKFKEKLTAASVGVQGSGWGWLGFNKERGHLQIAACPNQDPLQGTTGLIPLLGIDVWEHAYYLQYKNVRPDYLKAIWNVINWENVTERYMACKK
Take B1: the binding entry is on record as “no binding”.

The values above are taken from publication PMC12681905.
